Results: PMC7396694, “Two MarR-Type Repressors Balance Precursor Uptake and Glycine Betaine Synthesis in Bacillus subtilis to Provide Cytoprotection Against Sustained Osmotic Stress” (Frontiers in Microbiology, 2020)
A negative result means that nothing was seen under these conditions. Where a protein sequence is shown, tags need not be part of it.

Biological target: T1, GbsR-Strep-tag II (Bacillus subtilis JH642) (UniProt P71015)
T1 sequence (looked up): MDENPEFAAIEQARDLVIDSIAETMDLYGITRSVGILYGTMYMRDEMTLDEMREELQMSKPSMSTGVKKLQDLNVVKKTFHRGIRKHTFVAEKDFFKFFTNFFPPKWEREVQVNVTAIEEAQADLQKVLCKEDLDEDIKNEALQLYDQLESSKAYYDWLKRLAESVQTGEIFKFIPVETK
Experiment: EMSA
Conditions: 150 ug/ml herring sperm DNA; 10 mM Tris pH 8, 150 ug/ml herring sperm DNA, 7.5% glycerol, 1 pmol DNA in 20 ul, 20 min at 25 C; native 8% polyacrylamide gel; recombinant protein; residues 1-180; protein details: C-terminal Strep-tag II (SA-WSHPQFEK); label: 5' DY781 on the BS_gbsA_rev strand; probe letters rebuilt from the primers and the genome

GGGACTTTGACAGTTTAAAAACCATATGTTAGATTAAGGTTGTTAAAAACACAAACTTTATTTACGTCAAGGAGGCTTAT (double strand) [gbsA fragment lacking GbsR operator]
binding result: no binding
